Experimental data as given in publication PMC8371918.
These are yes or no findings as the source states them, for the method shown. In cells and extracts the contact can be indirect. Some entries that bind do so weakly or less than the wild type.

Protein sequences, listed by entry. Tags and fused reporters are not part of them.
UniProt O35800: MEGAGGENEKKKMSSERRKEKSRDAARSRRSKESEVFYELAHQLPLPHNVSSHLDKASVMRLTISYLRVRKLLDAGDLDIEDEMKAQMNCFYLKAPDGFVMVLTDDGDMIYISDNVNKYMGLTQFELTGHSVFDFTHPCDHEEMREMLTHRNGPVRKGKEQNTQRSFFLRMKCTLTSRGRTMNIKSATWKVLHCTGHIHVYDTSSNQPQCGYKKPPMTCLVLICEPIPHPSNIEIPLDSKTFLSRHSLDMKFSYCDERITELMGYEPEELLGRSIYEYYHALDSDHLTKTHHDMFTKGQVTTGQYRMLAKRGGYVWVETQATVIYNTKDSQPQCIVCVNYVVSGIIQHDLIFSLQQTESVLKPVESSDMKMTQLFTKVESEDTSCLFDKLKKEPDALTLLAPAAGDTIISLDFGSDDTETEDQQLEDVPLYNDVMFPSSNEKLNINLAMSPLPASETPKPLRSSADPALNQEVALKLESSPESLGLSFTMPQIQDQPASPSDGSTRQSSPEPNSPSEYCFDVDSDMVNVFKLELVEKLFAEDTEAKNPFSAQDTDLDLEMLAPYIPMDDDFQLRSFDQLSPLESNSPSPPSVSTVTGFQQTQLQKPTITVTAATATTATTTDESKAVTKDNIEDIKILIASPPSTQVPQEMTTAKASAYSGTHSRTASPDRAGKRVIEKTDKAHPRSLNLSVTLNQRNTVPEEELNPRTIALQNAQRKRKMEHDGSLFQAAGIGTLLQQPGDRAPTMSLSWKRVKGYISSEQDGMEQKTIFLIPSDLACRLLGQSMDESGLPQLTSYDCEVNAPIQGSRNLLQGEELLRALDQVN
UniProt P10361: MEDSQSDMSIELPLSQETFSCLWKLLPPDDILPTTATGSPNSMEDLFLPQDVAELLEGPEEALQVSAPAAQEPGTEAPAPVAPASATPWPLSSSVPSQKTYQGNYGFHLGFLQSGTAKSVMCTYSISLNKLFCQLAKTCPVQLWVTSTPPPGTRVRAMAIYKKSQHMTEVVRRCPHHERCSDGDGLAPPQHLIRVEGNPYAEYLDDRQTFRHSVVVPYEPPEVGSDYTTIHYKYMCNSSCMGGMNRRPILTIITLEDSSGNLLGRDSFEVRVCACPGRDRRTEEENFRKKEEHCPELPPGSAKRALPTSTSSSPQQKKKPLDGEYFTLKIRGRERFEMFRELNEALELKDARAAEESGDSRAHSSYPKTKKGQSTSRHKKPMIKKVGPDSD

B1: COX2 (protein, UniProt P35355 18-604)
chain: ANPCCSNPCQNRGECMSIGFDQYKCDCTRTGFYGENCTTPEFLTRIKLLLKPTPNTVHYILTHFKGVWNIVNNIPFLRNSIMRYVLTSRSHLIDSPPTYNVHYGYKSWEAFSNLSYYTRALPPVADDCPTPMGVKGNKELPDSKEVLEKVLLRREFIPDPQGTNMMFAFFAQHFTHQFFKTDQKRGPGFTRGLGHGVDLNHVYGETLDRQHKLRLFQDGKLKYQVIGGEVYPPTVKDTQVDMIYPPHVPEHLRFAVGQEVFGLVPGLMMYATIWLREHNRVCDILKQEHPEWDDERLFQTSRLILIGETIKIVIEDYVQHLSGYHFKLKFDPELLFNQQFQYQNRIASEFNTLYHWHPLLPDTFNIEDQEYTFKQFLYNNSILLEHGLAHFVESFTRQIAGRVAGGRNVPIAVQAVAKASIDQSREMKYQSLNEYRKRFSLKPYTSFEELTGEKEMAAELKALYHDIDAMELYPALLVEKPRPDAIFGETMVELGAPFSLKGLMGNPICSPQYWKPSTFGGEVGFRIINTASIQSLICNNVKGCPFASFNVQDPQPTKTATINASASHSRLDDINPTVLIKRRSTEL

Tests used:
[1] = biological target: hypoxia-inducible factor-1 alpha (rat (endogenous in tenocytes)) (UniProt O35800); test: co-IP; lysate (RIPA buffer) of rat tenocytes transfected with pCDH-COX2 for 48 h; protein A + G beads with antibodies to COX2, HIF-1α or p53, 4°C, 4 h, then immunoblot; cells without TSA (the same pairs were also seen with 500 nM TSA, with COX2-HIF-1α and p300-HIF-1α decreased)
[2] = biological target: p53 (rat (endogenous in tenocytes)) (UniProt P10361); test: as above

Row | Molecule | binding [1] | binding [2]
1 | p53 (from UniProt P10361 1-391) | binds | –
2 | B1 | binds | binds
